Data: publication doi:10.1101/431494
No constants are given. Whether binding was seen depends on the method and setting. Some entries that bind do so weakly or less than the wild type. Tags and fused reporters may be left off the sequences shown.

Assays:
Assay in all cases: SDS-PAGE
[1] = molecular target: Rhodospirillum rubrum encapsulated ferritin, hexahistidine-tagged variant (Rhodospirillum rubrum) (UniProt Q2RVS1)
[2] = molecular target: Pyrococcus furiosus encapsulated ferritin domain, residues 1-99, C-terminal StrepII-tagged variant (Pyrococcus furiosus) (UniProt Q8U1L4)
[3] = molecular target: Rhodospirillum rubrum encapsulated ferritin, Strep-tagged variant (Rhodospirillum rubrum) (UniProt Q2RVS1)

B1: Rhodospirillum rubrum encapsulated ferritin, hexahistidine-tagged variant (protein, UniProt Q2RVS1 1-140)
chain: MAQSSNSTHEPLEVLKEETVNRHRAIVSVMEELEAVDWYDQRVDASTDPELTAILAHNRDEEKEHAAMTLEWLRRNDAKWAEHLRTYLFTEGPITAIEAADTAGEGSGGDAAKGATAQGDGSLGIGSLKGEAALARPPRL
binding [1]: binds

B2: Pyrococcus furiosus encapsulated ferritin domain, residues 1-99, C-terminal StrepII-tagged variant (domain or fragment, UniProt Q8U1L4 1-99)
chain: MLSINPTLINRDKPYTKEELMEILRLAIIAELDAINLYEQMARYSEDENVRKILLDVAREEKAHVGEFMALLLNLDPEQVTELKGGFEEVKELTGIEAH
binding [2]: binds

B3: Rhodospirillum rubrum encapsulated ferritin, Strep-tagged variant (protein, UniProt Q2RVS1 1-140)
chain: B1 chain
binding [3]: binds
